The list shows a part of the results. Further columns of the screen follow, without active or inactive calls. Most of these compounds were active or inconclusive in the main read-out, so they are no random draw. The note in brackets gives the kind of curve behind each potency; many fits are weak.
Experiment: qHTS Assay for Lipid Storage Modulators in Drosophila S3 Cells;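 for cell number change: cells counted by Cell Tracker Red CMTPX staining in the red channel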
Settings: BODIPY lipid droplet fluorescence, 18-24 h; for cell number change: measured here: cell count max response, cells fed with added oleic acid
How it was run: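 Laser-scanning cytometry quantifies lipid droplet accumulation (500–530 nm total intensity; droplet/cell object ratio) in oleic acid-fed (400 uM added) Drosophila S3 cells treated with a concentration series. 20 uM Triacsin C defined 100% inhibition.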

[1] = measured here: cell number channel AC50, cells fed with added oleic acid
[2] = measured here: lipid fluorescence (Fed channel) AC50, cells fed with added oleic acid

Structure (SMILES)	AC50 [1]	AC50 [2]	cell number change [%]
COC(=O)c1ccc(NC(=O)CSc2nnc(COc3ccc4c(c3)CCCC4)o2)cc1	0.00411 µM [falling, full curve, poor fit]		
CCN(CC)c1ccc(/C=C2\CCC(/C=C(\C#N)C(=O)Nc3ccccc3F)=C2N2CCOCC2)cc1		0.411 µM [falling, full curve]	
Cc1ccc(C(=O)CC(=O)COc2ccc(Cl)cc2)cc1		29.1 µM [falling, single point]	-29.4
CCOC(=O)N1CCC2(O)CCCCC2C1c1ccc(F)cc1 (stereo not drawn)			10.1
COc1ccc(C(=O)Oc2ccc3c(c2)OCO3)cc1OC	29.1 µM [falling, partial curve, poor fit]		-37.1
COc1cc(C(=O)NCCCN(C)C)ccc1OCC(=O)Nc1cccc(C(F)(F)F)c1		0.00517 µM [falling, full curve, poor fit]	15.8
COc1ccc(NC(=O)c2ccc(F)cc2)cc1S(=O)(=O)Nc1cc(C)ccc1Br	0.103 µM [rising, full curve, poor fit]		-2.23
CN(c1ccc(C(=O)N/N=C/c2cccc([N+](=O)[O-])c2)cc1)S(=O)(=O)c1ccccc1	6.51 µM [falling, partial curve, poor fit]		-18.4
Cc1c(NC(=O)OCCSc2nc(N(C)C)nc(N(C)C)n2)sc(=S)n1C	0.259 µM [rising, full curve, poor fit]	0.259 µM [rising, partial curve, poor fit]	21.5
Cc1nn(S(=O)(=O)c2cccs2)c(C)c1Sc1ccc([N+](=O)[O-])cc1	8.2 µM [falling, partial curve, poor fit]	16.4 µM [falling, partial curve, poor fit]	-32
Cn1nccc1C(=O)Nc1ccc(OC(=O)c2ccnn2C)cc1	1.03 µM [falling, full curve, poor fit]	1.3 µM [falling, full curve]	16.2
COCCNC(=O)/C(C#N)=C/c1ccc(OC(=O)c2cccs2)c(OC)c1	32.6 µM [falling, single point]	32.6 µM [falling, single point]	-47.5
Cc1ccc(NC(=O)CCNS(=O)(=O)c2ccc3[nH]c(=O)oc3c2)cc1N(C)C			-3.28
CN(C)CCCN(C(=O)c1ccco1)c1nc2c(F)cccc2s1	6.51 µM [rising, partial curve, poor fit]	6.51 µM [rising, single point]	
CCN(CC)CCn1c(NCc2ccc(OC)cc2)nc2ccccc21			-8.81
O=[N+]([O-])c1ccccc1S(=O)(=O)N1CCCCC1		29.1 µM [falling, single point]	
CCCCSCCCNC(=O)c1ccc2c(c1)N(CC)C(=O)c1ccccc1S2=O (stereo not drawn)		6.51 µM [falling, single point]	-24.3
Cc1ccc(NC(=S)Nc2cccc3ccccc23)cc1F		29.1 µM [rising, single point]	-22.8
Cn1c(SCC(=O)NCCc2ccccc2)nc2c([nH]c3ccccc32)c1=O	0.103 µM [rising, partial curve, poor fit]	0.0651 µM [rising, full curve, poor fit]	17

Structure (SMILES)	AC50 [1]	AC50 [2]	cell number change [%]
COC(=O)c1c(NC(=O)Cc2ccccc2)sc2c1C(C(=O)OC)CC2 (stereo not drawn)	0.0461 µM [rising, full curve, poor fit]	0.411 µM [rising, full curve, poor fit]	34.5
O=C(O)c1cccc(N=C2NC(=O)C(CO)(CO)S2)c1		29.1 µM [rising, single point]	16.1
Cc1cc(C)c(COCc2cc(/C=N/O)c(C)cc2C)cc1/C=N/O	2.91 µM [rising, single point]	6.51 µM [rising, single point]	-24.5
COc1ccc(OC)c(NC(=O)CSc2ccc3nnc(-c4cccnc4)n3n2)c1	2.06 µM [rising, full curve]	3.26 µM [rising, single point]	35.2
Cc1ccc(NC(=O)c2cc(S(=O)(=O)NCCC3=CCCCC3)ccc2F)cc1F	16.4 µM [falling, single point]	16.4 µM [falling, single point]	-34.6
Cc1c(C(c2ccc(C(=O)O)cc2)c2c(C)n(C)n(-c3ccccc3)c2=O)c(=O)n(-c2ccccc2)n1C		0.116 µM [falling, full curve, poor fit]	-6.76
Cc1ccc(NC(=O)C2C3CCC(O3)C2C(=O)O)c(Br)c1 (stereo not drawn)		1.64 µM [falling, partial curve]	3.87
CCOC(=O)c1cnc(-c2ccccc2)nc1N(C)C	0.461 µM [rising, partial curve]		41.8
CCOc1ccccc1-n1c(=S)sc2c(=O)n(-c3ccc(F)cc3)c(SCC(=O)O)nc21	3.66 µM [falling, full curve]		-35.2
CC(C)CCNC(=O)c1ccc(Cl)c(NC(=O)Cc2ccccc2)c1		2.31 µM [rising, partial curve]	
CCC1CCCCN1C(=O)CSc1nc2ncccc2[nH]1 (stereo not drawn)		29.1 µM [rising, single point]	
CCOC(=O)CC(=O)CSc1nc2nc(C)cc(C)n2n1		7.31 µM [rising, partial curve]	1.56
O=C1N/C(=N\c2ccccn2)SC1Cc1ccccc1Cl (stereo not drawn)	29.1 µM [rising, single point]		30.3
Cc1ccc(N2CC(C(=O)Nc3ccc(S(=O)(=O)Nc4ncccn4)cc3)CC2=O)cc1C (stereo not drawn)		6.51 µM [rising, partial curve, poor fit]	9.83
COC(=O)C1=C(N)OC2=C(C(=O)CC(C)(C)C2)C1c1cc2c(cc1Cl)OCO2 (stereo not drawn)		32.6 µM [falling, single point]	4.85
O=C1CCCC/C1=N\Nc1ccc(OCc2ccccc2)cc1		23.1 µM [falling, partial curve, poor fit]	1.31
Cc1nn(-c2ccccc2)c2sc(-c3nnc(SCC(=O)O)o3)cc12		5.8 µM [rising, partial curve]	12.7
CC1=NN(C(=O)c2ccc(Cl)cc2)C(O)(c2ccccc2)C1 (stereo not drawn)		6.51 µM [falling, partial curve]	-21.5
C/C(=N\NC(=O)c1nn(C)cc1Br)c1cccc(NC(=O)C2CCCC2)c1			-21.8

A different layout for 11 compounds above.

| Structure (SMILES) | AC50 [1] | AC50 [2] | cell number change [%] |
| --- | --- | --- | --- |
| O=C(O)c1cccc(N=C2NC(=O)C(CO)(CO)S2)c1 |  | 29.1 µM [rising, single point] | 16.1 |
| Cc1ccc(NC(=O)c2cc(S(=O)(=O)NCCC3=CCCCC3)ccc2F)cc1F | 16.4 µM [falling, single point] | 16.4 µM [falling, single point] | -34.6 |
| Cc1ccc(NC(=O)C2C3CCC(O3)C2C(=O)O)c(Br)c1 (stereo not drawn) |  | 1.64 µM [falling, partial curve] | 3.87 |
| CCOC(=O)c1cnc(-c2ccccc2)nc1N(C)C | 0.461 µM [rising, partial curve] |  | 41.8 |
| CCOc1ccccc1-n1c(=S)sc2c(=O)n(-c3ccc(F)cc3)c(SCC(=O)O)nc21 | 3.66 µM [falling, full curve] |  | -35.2 |
| CC(C)CCNC(=O)c1ccc(Cl)c(NC(=O)Cc2ccccc2)c1 |  | 2.31 µM [rising, partial curve] |  |
| CCC1CCCCN1C(=O)CSc1nc2ncccc2[nH]1 (stereo not drawn) |  | 29.1 µM [rising, single point] |  |
| O=C1N/C(=N\c2ccccn2)SC1Cc1ccccc1Cl (stereo not drawn) | 29.1 µM [rising, single point] |  | 30.3 |
| COC(=O)C1=C(N)OC2=C(C(=O)CC(C)(C)C2)C1c1cc2c(cc1Cl)OCO2 (stereo not drawn) |  | 32.6 µM [falling, single point] | 4.85 |
| Cc1nn(-c2ccccc2)c2sc(-c3nnc(SCC(=O)O)o3)cc12 |  | 5.8 µM [rising, partial curve] | 12.7 |
| C/C(=N\NC(=O)c1nn(C)cc1Br)c1cccc(NC(=O)C2CCCC2)c1 |  |  | -21.8 |

(listing goes on)

Structure (SMILES)	AC50 [1]	AC50 [2]	cell number change [%]
CCOC(=O)N1CCN(Cc2nc3cc(NC(=O)C(C)C)ccc3n2C)CC1	4.61 µM [falling, single point]		
Cc1ccc(NC(=O)CN(C)C(=O)c2cccc(S(=O)(=O)N3CCCC3)c2)cc1		29.1 µM [falling, single point]	-17
COC(=O)c1ccccc1NC(=O)CN1CCC(C(=O)c2ccc3c(c2)OCCO3)CC1		0.82 µM [rising, partial curve]	-12.9
CC(=O)c1ccc(OC(=O)CCc2ccccc2)cc1		29.1 µM [rising, single point]	7.02
OCC1OC(n2nnc3ccccc32)C(O)C(O)C1O (stereo not drawn)	20.6 µM [falling, single point]		-87
COCCCN(CC(=O)O)S(=O)(=O)c1ccccc1		0.82 µM [falling, full curve, poor fit]	-18.5
O=C(c1cccn(Cc2ccc(Cl)c(Cl)c2)c1=O)N1CCOCC1		0.259 µM [falling, full curve, poor fit]	-12.9
CC(NC(=O)c1ccc(S(=O)(=O)C(F)F)cc1)c1ccccc1 (stereo not drawn)	0.13 µM [falling, full curve, poor fit]	0.092 µM [falling, full curve, poor fit]	-27.8
CC(C)(C)C(=O)Nc1cc(C(F)(F)F)ccc1-n1ccnc1	29.1 µM [falling, single point]	29.1 µM [falling, single point]	-91.6
CN1CCCN(C(=O)c2ccc(Cl)c(S(=O)(=O)N(C)c3ccccc3)c2)CC1		6.51 µM [falling, single point]	0.476
CC(=O)Nc1c(O)nc(SCC(=O)Nc2cccc(C)c2)[nH]c1=O	4.11 µM [falling, partial curve]		-52
COc1ccc(NC(=O)c2cccc(OS(=O)(=O)N(C)C)c2)cc1			-5.41
CCc1cc2c(SCC#N)ncnc2s1	14.6 µM [rising, partial curve]		53.2
Cc1cc([N+](=O)[O-])nn1CC(=O)N1c2ccccc2CC1C (stereo not drawn)		29.1 µM [rising, partial curve]	12.6
O=C(NCCSCc1ccc(Cl)cc1)c1cccs1	29.1 µM [falling, single point]		-47.2
CCCNC(=O)c1ccc(N2CCC3(CC2)CC(c2ccccc2)=NO3)c(NC(=O)Cc2ccc(F)cc2)c1			18.3
Cc1nc2ccccc2c(=O)n1NC(=O)CCC(=O)O		35.5 µM [rising, partial curve, poor fit]	-39.2
CC1CCc2sc(NC(=O)c3ccc(N4C(=O)CCC4=O)cc3)c(C(N)=O)c2C1 (stereo not drawn)	0.146 µM [rising, full curve, poor fit]		14.2
CC(C)(C)C(=O)Nc1ccccc1C(=O)NCc1ccco1		6.51 µM [rising, single point]	-8.58

— PubChem BioAssay AID2685 (National Center for Advancing Translational Sciences (NCATS), 2010)
